In ChEMBL document CHEMBL3875233, “Non-kinase targets of protein kinase inhibitors” (Nat Rev Drug Discov, 2017):

Target: Bromodomain testis-specific protein (Homo sapiens, UniProt Q58F21)

IC50: 37 to 61 µM
SMILES: CCc1cnn2c(NCc3ccc[n+]([O-])c3)cc(N3CCCC[C@H]3CCO)nc12 [DINACICLIB]
